Test results as given in article PMC7819943, “Rice protein-binding microarrays: a tool to detect cis-acting elements near promoter regions in rice”.
The list shows a part of the results.

Amino acid sequences for entries named in this document (tags omitted).
UniProt Q0JBA9, entry or part of it: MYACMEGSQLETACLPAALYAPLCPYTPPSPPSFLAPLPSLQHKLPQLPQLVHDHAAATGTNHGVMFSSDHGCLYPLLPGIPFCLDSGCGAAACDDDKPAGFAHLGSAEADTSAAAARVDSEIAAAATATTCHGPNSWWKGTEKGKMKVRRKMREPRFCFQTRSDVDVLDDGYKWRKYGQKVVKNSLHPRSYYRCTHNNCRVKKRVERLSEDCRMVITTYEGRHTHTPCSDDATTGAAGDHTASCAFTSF

target: OsWRKY34 (Oryza sativa, UniProt Q0JBA9 1-250); assay: protein-binding microarray (RPBM); PBS, 2% BSA, 51.3 ng/ul salmon testes DNA, 50 uM zinc acetate, 200 nM TF, 25 C, 1 h; high values mean tight binding; conditions: protein: recombinant; tags: N-terminal polyhistidine and DsRed monomer fusion (pET32a); label: CyDye5-dUTP incorporated in the synthesized complementary strand; 3' TTTTT single-stranded linker to array surface; dsDNA, one strand shown
In short: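 Binding signal is reported as fluorescence intensity per feature (arbitrary units) from an Axon 4000B scanner. Incubation used 200 nM of each Ni–NTA-purified, N-terminally polyhistidine- and DsRed-fused transcription factor from E. coli BL21-CodonPlus on a double-stranded custom Agilent array for 1 h at 25 °C, with 50 µM zinc acetate in the buffer, followed by washing.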

Question: With “ATATGGCCCTGCACTACGAGTCTGTTTGTTTACTTGAGTCCGGAGTCACCTAGTGCAG” as the sequence, how does the binding signal read?
Answer: 9210 fluorescence intensity (a.u.)

Question: With “TGGTGGTGGTTCTTTCAATTTGGAATACTGTCCTAGTGTCCGGAGTCACCTAGTGCAG” as the sequence, how does the binding signal read?
Answer: 8580 fluorescence intensity (a.u.)

Question: Which binding signal does the source give for “TGACGCCGTTGACTTTTTCTTACATGTTTGACCATTCGTCCGGAGTCACCTAGTGCAG” here?
Answer: 36700 fluorescence intensity (a.u.)

Question: “TGTTACTGCGAGCATCACTTACTACTCTGTTTGACCATCACGGAGTCACCTAGTGCAG” was tested. Which binding signal did it give?
Answer: 10500 fluorescence intensity (a.u.)

Question: With “TTCTTCATTTGTAATATGTCGTTTGGTTTATTTCCCGAACCGGAGTCACCTAGTGCAG” as the sequence, how does the binding signal read?
Answer: 10500 fluorescence intensity (a.u.)

Question: With “CCATCACCAAACCCCGAATTTACTACGACATTTTCCATCACGGAGTCACCTAGTGCAG” as the sequence, how does the binding signal read?
Answer: 9300 fluorescence intensity (a.u.)

Question: Which binding signal does the source give for “GTGGAAACCGCTAGCATAAATATTACGAGGGGTGGGAGGCCGGAGTCACCTAGTGCAG” here?
Answer: 8850 fluorescence intensity (a.u.)

Question: Which binding signal does the source give for “CGACGCTTCCCATATAATTTTGGCCCGGAACTCCAATTCCCGGAGTCACCTAGTGCAG” here?
Answer: 8710 fluorescence intensity (a.u.)

Question: With “TAATTGTGTAGCTTCATCATCCCATCCATATCCATCGTTCCGGAGTCACCTAGTGCAG” as the sequence, how does the binding signal read?
Answer: 9220 fluorescence intensity (a.u.)

Question: How did the binding signal turn out when “CGGCGGTGGTCTCCGCCGTTGGATCTGGGCGTTGACTTGTCGGAGTCACCTAGTGCAG” was run?
Answer: 9160 fluorescence intensity (a.u.)

Question: For “CTCTCTTTTGTTTTTTTTGGATTTTTAGTGAATATAATGACGGAGTCACCTAGTGCAG”, which binding signal is on record?
Answer: 10000 fluorescence intensity (a.u.)

Question: “TGTCAAATCTTTATTTTTCTACTATACTACTATTTCTCTTCGGAGTCACCTAGTGCAG” was tested. Which binding signal did it give?
Answer: 8640 fluorescence intensity (a.u.)

Question: Which binding signal does the source give for “CAGAAATGGCAACTAGCCTCGGATTTTTCCCTTTTATGTCCGGAGTCACCTAGTGCAG” here?
Answer: 9200 fluorescence intensity (a.u.)

Question: Which binding signal does the source give for “TCGCTCTCGCCCGCCGTCGCCATGCTCGCCCGCTGCCGCTCGGAGTCACCTAGTGCAG” here?
Answer: 8410 fluorescence intensity (a.u.)

Question: With “TCCGACCGTTGCGTCCGCCTCAGGTGCGCGCCCGCTTTTCCGGAGTCACCTAGTGCAG” as the sequence, how does the binding signal read?
Answer: 8070 fluorescence intensity (a.u.)

Question: Which binding signal does the source give for “AAATATCAGTCCTGTTTTTTTTTACTTTCTTGCTCTATCACGGAGTCACCTAGTGCAG” here?
Answer: 11100 fluorescence intensity (a.u.)

Question: How did the binding signal turn out when “GGACACCATGACCACCAGATTCCCATCGAAGCTCCATCCACGGAGTCACCTAGTGCAG” was run?
Answer: 8130 fluorescence intensity (a.u.)

Question: For “GAGACTAATTCCGACCTTGACCAAACCAAACCCTACCAAACGGAGTCACCTAGTGCAG”, which binding signal is on record?
Answer: 9200 fluorescence intensity (a.u.)

Question: How did the binding signal turn out when “CGGTTTTTTCCCTTGGTTTTTTTTCGCCAGTTTTTTTTCGCGGAGTCACCTAGTGCAG” was run?
Answer: 10200 fluorescence intensity (a.u.)

Question: How did the binding signal turn out when “TGGGGTTTTCTTTTTTGGGTTGGGTTGATCTTTTGGGTGGCGGAGTCACCTAGTGCAG” was run?
Answer: 36600 fluorescence intensity (a.u.)

Question: “CTCCGGTTGCTTCACCTTGCAGGGCTCTTTATCTTAACCACGGAGTCACCTAGTGCAG” was tested. Which binding signal did it give?
Answer: 8500 fluorescence intensity (a.u.)

Question: “CGATCGCGATTTTTTTTTCTTCGCCGGATTTTTTTTTCTCCGGAGTCACCTAGTGCAG” was tested. Which binding signal did it give?
Answer: 9090 fluorescence intensity (a.u.)

Question: With “CCGTTGGGGACACGTGGCACTCTCGCATTCGTCGTTTGACCGGAGTCACCTAGTGCAG” as the sequence, how does the binding signal read?
Answer: 8780 fluorescence intensity (a.u.)

Question: How did the binding signal turn out when “CTTATATTTTGATGTGTTTCCTTCCATGGTTCGTTACTGTCGGAGTCACCTAGTGCAG” was run?
Answer: 9830 fluorescence intensity (a.u.)

Question: Which binding signal does the source give for “TTTTTCCCTTGCTCGTCTGCGCCGCCACCTCCTCCACCTTCGGAGTCACCTAGTGCAG” here?
Answer: 9520 fluorescence intensity (a.u.)

Question: For “ATCTTCATTCATGTCTCCAATAAGTTTATTTTCGACTAATCGGAGTCACCTAGTGCAG”, which binding signal is on record?
Answer: 8110 fluorescence intensity (a.u.)

Question: How did the binding signal turn out when “AGCTAGTGACTTTTGTTGTGTTTTATTCCGTGCTGGTCAGCGGAGTCACCTAGTGCAG” was run?
Answer: 8870 fluorescence intensity (a.u.)

Question: With “CACTTCTTTGGTCTGCTCTTCTTGGTATCCTTCTCCTACGCGGAGTCACCTAGTGCAG” as the sequence, how does the binding signal read?
Answer: 10900 fluorescence intensity (a.u.)

Question: With “TCGACTATTTAGTTCTCTCTATTTCTTTGTTCATATACACCGGAGTCACCTAGTGCAG” as the sequence, how does the binding signal read?
Answer: 10000 fluorescence intensity (a.u.)

Question: How did the binding signal turn out when “GCTTTGATTTTTCCCCAAATTTCTTGACCGTTGGTAGGGCCGGAGTCACCTAGTGCAG” was run?
Answer: 8190 fluorescence intensity (a.u.)

Question: Which binding signal does the source give for “TGCTTCTGTTAGGTTTCTTGGTCCAAGTTTGCCTTTCTCACGGAGTCACCTAGTGCAG” here?
Answer: 12800 fluorescence intensity (a.u.)

Question: Which binding signal does the source give for “TCCTCATCTCATCCTAGCTACCTCCTCGTTTGATCGATCGCGGAGTCACCTAGTGCAG” here?
Answer: 10000 fluorescence intensity (a.u.)

Question: With “CACTTACATGCCATATCTACTGTTTTTACAAATGTAATGTCGGAGTCACCTAGTGCAG” as the sequence, how does the binding signal read?
Answer: 8440 fluorescence intensity (a.u.)

Question: With “CCTAACCATATTGTCTCTCTTGTCCTTATCACCGACCATACGGAGTCACCTAGTGCAG” as the sequence, how does the binding signal read?
Answer: 10100 fluorescence intensity (a.u.)

Question: “CCCTAATATTTTCATGTCTTGGTCCATATCCTCCATAAACCGGAGTCACCTAGTGCAG” was tested. Which binding signal did it give?
Answer: 8790 fluorescence intensity (a.u.)

Question: For “ATGTTCTTTGCCATGATAATTGGGGTCATGTTTGTACTTTCGGAGTCACCTAGTGCAG”, which binding signal is on record?
Answer: 10900 fluorescence intensity (a.u.)

Question: For “TACTACTGTACTACTCTCAGTCTCTCGGCTTCTAGACTAGCGGAGTCACCTAGTGCAG”, which binding signal is on record?
Answer: 8600 fluorescence intensity (a.u.)

Question: How did the binding signal turn out when “TCCCTGATTTTTACTGCTTTCCTTCTATTGTTACAAACTCCGGAGTCACCTAGTGCAG” was run?
Answer: 10900 fluorescence intensity (a.u.)

Question: For “TATCGAGTCCCTGTAAGTTGTAACACGTGTTTGTTTCTCTCGGAGTCACCTAGTGCAG”, which binding signal is on record?
Answer: 8950 fluorescence intensity (a.u.)

Question: For “TATCACTCACCTCTGTAACCCTTATTTTGGAAAATCCGCACGGAGTCACCTAGTGCAG”, which binding signal is on record?
Answer: 9000 fluorescence intensity (a.u.)

Question: Which binding signal does the source give for “TAAACACCACGCTACAAATTTCCTTACCTGCTAAACGCAACGGAGTCACCTAGTGCAG” here?
Answer: 8370 fluorescence intensity (a.u.)

Question: With “CTCGCGCTCTCCTCTCCTCGCCGCCTCGCCGCCTCGCATGCGGAGTCACCTAGTGCAG” as the sequence, how does the binding signal read?
Answer: 8560 fluorescence intensity (a.u.)
